The other results are listed elsewhere or left out.
B1: il10ra_site1_sap_11_mot_HHH_b2_01447_af2_000000258_0001_1_20_H_._HHH_b1_02883_0002_0000100003_0000001_0_0001 (protein)
chain: SSSSDELDQEALRLSLEAFRLALRGNPEEARKVVEEAEELAERANDERLLKILETLLRALSSSSS
B2: il10ra_site1_sap_20_mot_HHH_b2_05540_000000178_0001_1_18_H_._HHH_b1_07555_0001_0000200022_0000001_0_0001_af2pred_0001 (protein)
chain: SSSSDAKEWIVRLALATARILAERGDEEAARRALEIAERSAKELGDPELEREVEELLEELRSSSS
B3: il10ra_site1_normal_mot_HHH_b2_00093_af2_000000025_0001_40_54_H_._HHH_b2_06470_0001_0000500025_0000002_0_af2pred_0001 (protein)
chain: SSSSDKEEELEELLEEVEEAVRRGDEQEAMRLLLEAAKLAKEAEDEEVLERLAELLRLLFSSSSS
B4: il10ra_site1_normal_mot_HHH_b2_02116_af2_000000165_0001_41_55_H_._HHH_b1_00232_0002_0000100001_0000002_0_af2pred_dldesign_0_af2pred (protein)
chain: SSSSSDKAARAARLVACCRQALATAPPELRRAAAETYAEELEHLGFPEEAAAVRRELELLSSSSS
B5: il10ra_site1_sap_20_mot_HHH_b1_06242_af2_000000274_0001_1_18_H_._3cc294eed14fd476e22f76c2ebdda8df_0001_0001_0000300015_0000001_0_0001 (protein)
chain: SSSSDEKAHRIYELLRRVAELHDEGNPEEAREVLEEAKELAEEVNSRLFKWIVEFLEKQLSSSSS
B6: il10ra_site1_normal_mot_HHH_b2_00984_000000042_0001_1_20_H_._HHH_b2_06733_0001_0000500035_0000001_0 (protein)
chain: SSSSSDLEERVEELLEEAEELSKRDPQKALQVLLEAVRIALEISNAELLQELWELIKKIASSSSS
B7: il10ra_site1_normal_mot_8756ee2cf497b5429c717dfc0c0bcfd6_0001_000000186_0001_1_13_H_._HHH_b2_02097_0001_0000100006_0000001_0 (protein)
chain: SSSSDLEEAIELVRRVVELLHEGNVEEARELVEEAEKVVEEAGNDVLRWQLEYLKRLLERDSSSS
B8: il10ra_site1_sap_26_mot_HHH_b1_03314_af2_000000278_0001_42_55_H_._HHH_b2_05136_0002_0000600012_0000001_0_0001_af2pred_0001 (protein)
chain: SSSSSSSEEERAEELFEEFEKAKSEEERRRIFKELLELALKSKDREAARLTARLLKSGSSSSSSS
B9: il10ra_site1_normal_mot_HHH_b2_02375_000000081_0001_1_20_H_._HHH_b1_03982_0001_0000300040_0000001_0 (protein)
chain: SSSSDEAFEIVEKAYREALELLRRGNPEEAEKIVEEAIEEIEKLGNEVAVWALEHLLRQINSSSS
B10: il10ra_site1_sap_23_mot_HHH_b1_05754_000000029_0001_1_19_H_._HHH_b2_00883_0001_0000100008_0000001_0_0001 (protein)
chain: SSSEEEVERLVEEVERVAEEAGDPRARVAARFHANLARWALERNDEEALKQVSFALRVFIRAFSS

These binders were tested against il10ra, Q13651 (assay: yeast display titration).

Apparent Kd, inactive:
B1 no binding seen, B2 no binding seen, B3 no binding seen, B4 no binding seen, B5 no binding seen, B6 no binding seen, B7 no binding seen, B8 no binding seen, B9 no binding seen, B10 no binding seen
